Assay results published in PMC4303145.
These are yes or no findings as the source states them, for the method shown. Binding seen in cells or lysates may run through a third protein. Binding calls can cover weak binding; strength is not graded here.

Protein sequences, listed by entry. Tags and fused reporters are not part of them. Lines headed by an entry give the natural chain unless they say otherwise; changes in a name come on top.
UniProt P18206: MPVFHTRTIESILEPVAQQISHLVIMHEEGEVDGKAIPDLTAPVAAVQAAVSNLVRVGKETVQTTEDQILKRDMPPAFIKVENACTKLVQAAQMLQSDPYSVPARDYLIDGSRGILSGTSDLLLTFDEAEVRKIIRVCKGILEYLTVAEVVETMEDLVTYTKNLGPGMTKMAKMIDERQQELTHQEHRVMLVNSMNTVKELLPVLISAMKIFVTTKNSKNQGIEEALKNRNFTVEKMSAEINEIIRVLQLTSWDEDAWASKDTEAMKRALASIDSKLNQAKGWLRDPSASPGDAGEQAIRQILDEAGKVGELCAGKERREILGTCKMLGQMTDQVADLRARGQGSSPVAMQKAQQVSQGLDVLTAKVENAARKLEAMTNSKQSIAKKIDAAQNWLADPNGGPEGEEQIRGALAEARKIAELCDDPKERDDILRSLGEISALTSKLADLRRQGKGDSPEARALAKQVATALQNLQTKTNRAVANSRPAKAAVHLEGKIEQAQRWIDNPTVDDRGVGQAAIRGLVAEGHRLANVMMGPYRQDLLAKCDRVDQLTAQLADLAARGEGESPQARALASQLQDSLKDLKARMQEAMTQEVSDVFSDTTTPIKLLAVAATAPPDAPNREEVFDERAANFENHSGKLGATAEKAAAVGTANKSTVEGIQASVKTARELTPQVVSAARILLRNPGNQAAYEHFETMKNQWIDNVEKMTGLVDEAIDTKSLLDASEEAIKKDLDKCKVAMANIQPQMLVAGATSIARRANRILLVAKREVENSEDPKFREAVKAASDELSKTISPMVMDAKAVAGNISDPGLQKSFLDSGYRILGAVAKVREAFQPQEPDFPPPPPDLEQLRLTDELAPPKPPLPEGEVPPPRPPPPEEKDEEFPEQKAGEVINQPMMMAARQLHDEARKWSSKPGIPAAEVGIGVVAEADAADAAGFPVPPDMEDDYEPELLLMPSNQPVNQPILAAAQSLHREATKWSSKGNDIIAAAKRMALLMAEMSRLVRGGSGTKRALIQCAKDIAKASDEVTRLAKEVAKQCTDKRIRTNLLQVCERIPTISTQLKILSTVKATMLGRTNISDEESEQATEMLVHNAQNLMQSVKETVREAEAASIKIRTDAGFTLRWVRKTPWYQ
UniProt Q8TED9: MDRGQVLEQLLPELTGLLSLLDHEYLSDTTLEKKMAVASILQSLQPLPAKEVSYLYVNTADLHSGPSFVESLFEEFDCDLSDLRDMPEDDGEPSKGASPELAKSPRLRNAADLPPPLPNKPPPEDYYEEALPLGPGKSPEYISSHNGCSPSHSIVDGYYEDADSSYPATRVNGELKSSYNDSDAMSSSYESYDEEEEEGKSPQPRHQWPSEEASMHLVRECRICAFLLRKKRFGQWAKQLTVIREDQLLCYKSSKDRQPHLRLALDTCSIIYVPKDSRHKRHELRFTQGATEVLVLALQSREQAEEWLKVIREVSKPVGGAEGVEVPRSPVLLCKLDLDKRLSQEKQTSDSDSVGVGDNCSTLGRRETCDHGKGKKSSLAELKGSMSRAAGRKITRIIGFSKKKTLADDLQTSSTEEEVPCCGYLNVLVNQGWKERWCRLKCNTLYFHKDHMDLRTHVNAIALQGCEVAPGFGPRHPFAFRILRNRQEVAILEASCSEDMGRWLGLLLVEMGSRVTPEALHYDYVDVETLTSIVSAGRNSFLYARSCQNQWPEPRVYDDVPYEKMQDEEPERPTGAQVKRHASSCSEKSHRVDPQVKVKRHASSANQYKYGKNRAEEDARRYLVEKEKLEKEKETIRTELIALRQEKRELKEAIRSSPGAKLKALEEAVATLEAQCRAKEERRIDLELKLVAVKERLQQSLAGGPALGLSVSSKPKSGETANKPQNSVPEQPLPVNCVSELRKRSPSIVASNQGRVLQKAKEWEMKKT

What was measured:
[1] = target: 3×HA-tagged vinculin (human) (UniProt P18206); assay: co-IP; RKO cells transiently co-transfected with 3×Flag-AFAP1L1 and 3×HA-vinculin; lysates immunoprecipitated with an anti-HA Ab, immunoblotted with an anti-Flag Ab
[2] = target: endogenous AFAP1L1 (human (endogenous in LoVo)) (UniProt Q8TED9); assay: co-IP; LoVo whole cell lysates, endogenous proteins; immunoprecipitated with the anti-AFAP1L1 Ab, immunoblotted with Abs against vinculin or other invadopodia or focal adhesion proteins

binding [1] | binding [2] | Substance
binds | – | 3×Flag-tagged AFAP1L1 (actin filament-associated protein 1-like 1) (from UniProt Q8TED9 1-768)
– | binds | endogenous vinculin (from UniProt P18206-2)
